Data reported in PubChem BioAssay AID2685 (National Center for Advancing Translational Sciences (NCATS), 2010).
This is one part of the list. Shown are side measurements of this screen, not its main read-out; they come without a call. Most of these compounds were active or inconclusive in the main read-out, so they are no random draw. Words in brackets tell the shape of the fitted curve; partial curves, single points and poor fits give uncertain potencies.

Assay: qHTS Assay for Lipid Storage Modulators in Drosophila S3 Cells;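 on cell number change: cells counted by Cell Tracker Red CMTPX staining in the red channel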
Conditions: BODIPY lipid droplet fluorescence, 18-24 h; for cell number change: measured here: cell count max response, cells fed with added oleic acid
Description: NIH Molecular Libraries Probe Production Centers Network [MLPCN] NIH Chemical Genomics Center [NCGC] MLPCN Grant: 1 R03 MH085686-01 Assay Submitter (PI): Beller, Mathias; Max-Planck-Institut fur Biophysikalische Chemie NCGC Assay Overview: Storing lipids as a reservoir for energy or the anabolism of elementary metabolites is a common feature of probably all cells and is conserved from bacteria to humans. The universal cellular lipid storage organelle is the so-called lipid storage droplet (LD). Although ubiquitous, LDs share a simple structure composed of a hydrophobic core that harbors the storage lipids, which is shielded by a droplet-specific phospholipid monolayer to which proteins are attached. The current model of LD biogenesis involves an incorporation of the lipid core into the membrane leaflets of the endoplasmic reticulum (ER) followed by a subsequent budding-like maturation of a LD, which ultimately pinches off. Once released, LD volume can increase by localized lipogenesis or fusion of existing droplet. Storage lipids are re-mobilized enzymatically by lipase activity. Lipase regulation in the adipocyte is heavily studied and involves multiple components including catecholamine signaling, the LD-associated proteins Perilipin and comparative gene identification (CGI-58) and at least two lipases named hormone sensitive lipase (HSL) and adipocyte triglyceride lipase (ATGL). LD regulation outside of the adipocyte is poorly understood and only few components are known. However, there is an urgent need to learn more about ectopic fat depots as mislocalized storage of lipids, for example in the liver or muscle, is an eminent health problem associated with insulin resistance or the metabolic syndrome. We developed a laser-scanning cytometer assay to enable 1,536-well screening and combined the results of the small molecules screen with an RNAi database based on lipid storage.
Triacsin C (Sigma-Aldrich T-4540), an inhibitor of long-chain fatty acyl CoA synthetase that blocks synthesis of triglycerides, was used as a positive control for lipid under-storage. A total of 23 nL of compound solution of different concentrations were transferred to the assay plates using a Kalypsys pin tool equipped with a 1,536-pin array containing 10-nL slotted pins (FP1S10, 0.457-mm diameter, 50.8 mm long; V&P Scientific). One microliter of oleic acid (400 uM) was added, and the plate was lidded with stainless steel rubber gasket lined lids containing pinholes. […] Fluorescence was detected by excitation of the fluorophores with a 488-nm laser on an Acumen Explorer (TTP Lab Tech). The total intensity in channel 2 (500-530 nm) reflected lipid droplet accumulation. Cells were detected using channel 3 (575-640 nm) with 5-um width and 100-um depth filters. The ratio of the number of objects in PMT channel 2 over the number of objects in PMT channel 3 was also calculated. Percent activity was computed relative to an internal control (100% inhibited lipid droplet deposition due to the presence of 20 uM Triacsin C), which was added to 32 wells/plate.

[1] = measured here: lipid fluorescence (Fed channel) AC50, cells fed with added oleic acid
[2] = measured here: cell number channel AC50, cells fed with added oleic acid

Row | SMILES | cell number change [%] | AC50 [1] | AC50 [2]
1 | C=CCn1c(SCC(=O)N2CCCCC2)nnc1-c1ccncc1 | 23 | 0.00411 µM [rising, full curve, poor fit] | 
2 | CCCCn1c(SCC2CCCCO2)nc2cc(S(N)(=O)=O)ccc21 (stereo unspecified) | -24.9 |  | 
3 | Cc1ccc(N2C(=NC(=O)c3ccccc3)SC3CS(=O)(=O)CC32)cc1 (stereo unspecified) | 2.93 | 4.11 µM [falling, single point] | 
4 | CC(Oc1ccc(-c2ccccc2)cc1)C(=O)N1CCOCC1 (stereo unspecified) |  | 0.0291 µM [falling, full curve, poor fit] | 
5 | O=C(c1ccc2c(=O)n(Cc3ccc4c(c3)OCO4)c(=O)[nH]c2c1)N1CCN(c2ccccc2)CC1 | -11.2 | 2.59 µM [falling, full curve, poor fit] | 
6 | CC(=O)c1cccc(NC(=O)c2cc(-c3ccco3)on2)c1 | 13.8 | 0.82 µM [rising, full curve] | 
7 | Cc1ccc(OCCCC(=O)Nc2ccc3c(c2)OCO3)cc1 | -6.9 |  | 
8 | O=C(O)c1c[nH]c2ccc(S(=O)(=O)N3CCOCC3)cc12 | -36.8 |  | 1.3 µM [falling, full curve]
9 | COc1ccccc1C(=O)NNC(=O)C(=O)Nc1cccc(Cl)c1C | 56.6 | 35.5 µM [falling, single point] | 32.6 µM [rising, single point]
10 | CC1Cc2ccccc2N1C(=O)CCS(=O)(=O)c1ccc2c(c1)NC(=O)CS2 (stereo unspecified) | -27.4 |  | 
11 | C=CCC1(CC=C)CCCN1C(=O)Cn1nnnc1CN(C)C(C)C | 14.8 |  | 
12 | CCOC(=O)c1sc(=NC(=O)CCS(=O)(=O)c2ccccc2)n(C)c1C | 33.6 | 20.6 µM [rising, partial curve] | 
13 | Cc1ccccc1OCCSc1nnc(C)n1-c1ccccc1 |  | 0.517 µM [rising, partial curve, poor fit] | 0.92 µM [rising, full curve]
14 | Cc1cc(C)c(S(=O)(=O)N(CC(=O)O)CC(=O)O)c(C)c1 | 7.32 | 29.1 µM [falling, single point] | 
15 | Cc1ccc(Cl)cc1N1CCN(C(=O)C2CCCN(S(=O)(=O)c3cnc[nH]3)C2)CC1 (stereo unspecified) | -5.83 | 29.1 µM [falling, single point] | 
16 | COc1ccc(-c2nnc(NC(=O)c3ccc([N+](=O)[O-])o3)o2)c(OC)c1 | 3.45 | 2.31 µM [falling, partial curve, poor fit] | 
17 | CCN(CC)S(=O)(=O)c1cccc(-c2nnc(SCc3nc4ccccc4s3)o2)c1 |  | 13 µM [rising, partial curve] | 2.91 µM [rising, single point]
18 | Cn1c(SCC(=O)Nc2ccc3c(c2)OCCO3)nnc1C(F)(F)F | 3.26 | 0.231 µM [rising, partial curve, poor fit] | 
19 | O=C(/C=C/c1ccc([N+](=O)[O-])cc1)Nc1ncc([N+](=O)[O-])s1 | 1.5 |  | 0.0291 µM [rising, full curve, poor fit]
20 | Cc1ccsc1CNn1cnnc1SCc1ccccc1F | 47.9 |  | 29.1 µM [rising, partial curve, poor fit]
21 | COC(=O)[C@H](CCSC)NC(=O)c1cc2c(cn1)[nH]c1ccccc12 | 7.8 |  | 2.06 µM [rising, single point]

Row | SMILES | cell number change [%] | AC50 [1] | AC50 [2]
22 | O=C(NC1CC2CCCC(C1)N2C(=O)Nc1ccc(F)cc1)c1ccccc1 (stereo unspecified) | 8.75 |  | 
23 | O=C(CCS(=O)(=O)c1cccc2nonc12)NCCc1ccccc1Cl | -3.85 | 2.06 µM [rising, partial curve] | 
24 | CN1CCCN(C(=O)c2cc(=O)[nH]c3ccccc23)c2nc3ccccc3nc21 |  | 6.51 µM [rising, partial curve] | 
25 | COc1ccc(NC(=O)Nc2cccc([N+](=O)[O-])c2)cc1Cl | -55 |  | 18.4 µM [falling, single point]
26 | O=C1C2C3C=CC(C3)C2C(=O)N1CCc1ccccc1 (stereo unspecified) | 13.2 | 0.0651 µM [rising, full curve, poor fit] | 
27 | CC(=O)N1CCC(=NNC(=O)c2cccs2)CC1 |  | 0.116 µM [falling, full curve, poor fit] | 
28 | O=C(NC1CCCCC1)C1(c2ccccc2)CC1(Cl)Cl (stereo unspecified) | 11.8 |  | 6.51 µM [rising, single point]
29 | COc1cccc(CN(C(=O)Cc2c[nH]c3ccccc23)C(C(=O)NC2CCCCC2)c2cccs2)c1 (stereo unspecified) |  |  | 6.51 µM [rising, single point]
30 | COc1cc(NC(=O)Cc2ccc([N+](=O)[O-])cc2)c(C(=O)O)cc1OC | -5.66 |  | 
31 | O=C(c1cc(-c2ccncc2)nc2ccccc12)N1CCN(c2ccccn2)CC1 | -18.7 |  | 
32 | OCc1ccccc1CNCc1ccccc1 | -8.4 | 0.092 µM [falling, full curve, poor fit] | 1.16 µM [rising, partial curve, poor fit]
33 | COc1ccc(-c2cn(-c3ccc(C)c(Cl)c3)c(=S)[nH]2)cc1OC | 34 |  | 3.26 µM [rising, full curve, poor fit]
34 | CCOc1ccccc1Nc1nc(-c2sc(NC(=O)c3cccc(Cl)c3)nc2C)cs1 | 138 |  | 
35 | FC(F)(F)c1nc(NCc2ccccc2)c2nnn(Cc3ccccc3)c2n1 | -53.4 |  | 10.3 µM [falling, partial curve, poor fit]
36 | COc1cc(-c2nc3ccc4ccccc4c3c3c2CCC3)cc(OC)c1O | -25.2 | 18.4 µM [falling, single point] | 
37 | CN(C)c1ccc(C2N3CC4(C)CN2CC(C)(C3)C4O)cc1 (stereo unspecified) | -12.6 | 29.1 µM [rising, single point] | 
38 | N#Cc1ccc(-c2ccco2)nc1SCC(=O)c1ccc(Cl)cc1 | -12.6 | 6.51 µM [falling, partial curve, poor fit] | 
39 | Nc1ccc(S(=O)(=O)NNC(=O)C(=O)NNc2ccccn2)cc1 | -149 | 23.1 µM [falling, partial curve] | 25.9 µM [falling, partial curve]
40 | COC(=O)c1cc(S(=O)(=O)NCC2CCN(Cc3cc(C)ccc3C)CC2)cn1C | -18.6 |  | 
41 | CCOC(=O)Nc1ccc2nc(N3CCCCCC3)sc2c1 | 16.9 | 0.651 µM [rising, partial curve] | 0.146 µM [rising, full curve, poor fit]
42 | O=C(c1ccco1)N1CCN(c2cc(N3CCOCC3)c(F)cc2[N+](=O)[O-])CC1 | -46.3 |  | 8.2 µM [falling, partial curve]

Ordered by formula weight (high to low): part of the list above.
Row | SMILES | cell number change [%] | AC50 [1] | AC50 [2]
34 | CCOc1ccccc1Nc1nc(-c2sc(NC(=O)c3cccc(Cl)c3)nc2C)cs1 | 138 |  | 
22 | O=C(NC1CC2CCCC(C1)N2C(=O)Nc1ccc(F)cc1)c1ccccc1 (stereo unspecified) | 8.75 |  | 
37 | CN(C)c1ccc(C2N3CC4(C)CN2CC(C)(C3)C4O)cc1 (stereo unspecified) | -12.6 | 29.1 µM [rising, single point] | 

Next results follow.

Row | SMILES | cell number change [%] | AC50 [1] | AC50 [2]
43 | CCc1nc(SCC(=O)Nc2ccc(C(=O)O)cc2)n[nH]1 |  | 32.6 µM [falling, single point] | 
44 | COc1ccc(-c2nc3ccccc3o2)cc1NC(=O)c1ccc(Br)o1 | -19.2 |  | 
45 | Cc1ccc(OCC(=O)O)c(-n2nc3ccccc3n2)c1 | 0.884 | 1.3 µM [falling, full curve] | 
46 | COc1ccc(CCNC(=O)Cc2ccc(NS(=O)(=O)c3ccc(F)cc3)cc2)cc1OC | 0.516 | 5.17 µM [rising, partial curve] | 
47 | O=C(CSc1nc2ccccc2c(=O)n1-c1ccc(F)cc1)NCc1ccco1 |  | 0.651 µM [rising, single point] | 0.82 µM [rising, full curve]
48 | O=C(O)c1ccccc1-c1nc2ccccc2c(=O)[nH]1 | -36.6 | 29.1 µM [falling, single point] | 2.31 µM [falling, full curve, poor fit]
49 | Cc1nn(C)cc1/C=N/O | -33.3 | 0.116 µM [falling, full curve] | 4.11 µM [falling, full curve, poor fit]
50 | Cc1cccc(C)c1NC(=O)CN(C)C(=O)c1cccc(NS(=O)(=O)c2ccccc2)c1 | -10.9 | 16.4 µM [rising, single point] | 
51 | CCCNC(=O)c1ccccc1NC(=O)c1ccc2c(c1)NC(=O)C(C)S2 (stereo unspecified) | -15.9 |  | 
52 | CSc1ccccc1OCc1cc(C(=O)N[C@H]2CCCCNC2=O)no1 | -20.5 | 29.1 µM [falling, single point] | 
53 | NC(=O)[C@@H]1CC2(CC(c3cccc(NC(=O)[C@@H]4CCC(=O)N4)c3)=NO2)CN1C(=O)Cc1ccc([N+](=O)[O-])cc1 (stereo partly specified) | 25 | 29.1 µM [rising, single point] | 
54 | Cc1cc2nc(CS(=O)(=O)c3ccccc3)cc(=O)n2[nH]1 | -42.9 |  | 6.51 µM [falling, full curve, poor fit]
55 | O=[N+]([O-])c1ccc2nc(Cl)nc(-c3ccccc3)c2c1 | 15.3 |  | 
56 | CC(=O)c1ccc(OCC(=O)OCC(=O)NCc2ccco2)cc1 | 18.2 | 14.6 µM [rising, partial curve, poor fit] | 
57 | Cc1ccc(/C=N/N2CCN(Cc3ccccc3)CC2)cc1 | -8.7 |  | 0.517 µM [falling, single point]
58 | Cc1ccc(/C=C/C(=O)c2ccc(C)cc2)cc1 | -23.8 | 14.6 µM [falling, partial curve, poor fit] | 
59 | O=C(c1ccc(Cl)c(S(=O)(=O)N2CCCC2)c1)N1CCN(c2ccccc2)CC1 | 14.7 |  | 
60 | CN(C)c1ccc(/C=C2/SC(=O)N(CCN=C3NS(=O)(=O)c4ccccc43)C2=O)cc1 | -17.9 | 0.0116 µM [falling, full curve, poor fit] | 
61 | Cc1ccccc1OCCC(=O)N1CCN(S(=O)(=O)c2ccccc2F)CC1 |  | 20.6 µM [rising, single point] | 
62 | COc1cccc(CN(C)C(=O)c2cc(S(=O)(=O)NCc3ccccc3)ccc2C)c1OC | 130 |  | 23.1 µM [rising, partial curve]
